Measurements: US20050014680A1, “Methods and compositions for enhancing neuron growth and survival” (priority 2003, published 2005)
At least one structure is not confirmed: it was looked up by name or label, or the drawing left a doubt.

Tested on: E10.5 trigeminal ganglia
Experiment: E10.5 trigeminal explants in three-dimensional collagen matrix, neurotrophin-dependent axon outgrowth
Assay type: cell-based
Settings: explant and dissociated cultures; CsA or FK506 alone (data not shown)

SMILES: C=CC[C@@H]1/C=C(\C)C[C@H](C)C[C@H](OC)[C@H]2O[C@@](O)(C(=O)C(=O)N3CCCC[C@H]3C(=O)O[C@H](/C(C)=C/[C@@H]3CC[C@@H](O)[C@H](OC)C3)[C@H](C)[C@@H](O)CC1=O)[C@H](C)C[C@@H]2OC [FK506]
- inhibition of axon outgrowth by either drug alone: only partial block
